Test results taken from patent US20050215503.

Chains of the proteins cited; added tags and fusions are not shown. Residues count along the entry.
UniProt P08047, 2-785: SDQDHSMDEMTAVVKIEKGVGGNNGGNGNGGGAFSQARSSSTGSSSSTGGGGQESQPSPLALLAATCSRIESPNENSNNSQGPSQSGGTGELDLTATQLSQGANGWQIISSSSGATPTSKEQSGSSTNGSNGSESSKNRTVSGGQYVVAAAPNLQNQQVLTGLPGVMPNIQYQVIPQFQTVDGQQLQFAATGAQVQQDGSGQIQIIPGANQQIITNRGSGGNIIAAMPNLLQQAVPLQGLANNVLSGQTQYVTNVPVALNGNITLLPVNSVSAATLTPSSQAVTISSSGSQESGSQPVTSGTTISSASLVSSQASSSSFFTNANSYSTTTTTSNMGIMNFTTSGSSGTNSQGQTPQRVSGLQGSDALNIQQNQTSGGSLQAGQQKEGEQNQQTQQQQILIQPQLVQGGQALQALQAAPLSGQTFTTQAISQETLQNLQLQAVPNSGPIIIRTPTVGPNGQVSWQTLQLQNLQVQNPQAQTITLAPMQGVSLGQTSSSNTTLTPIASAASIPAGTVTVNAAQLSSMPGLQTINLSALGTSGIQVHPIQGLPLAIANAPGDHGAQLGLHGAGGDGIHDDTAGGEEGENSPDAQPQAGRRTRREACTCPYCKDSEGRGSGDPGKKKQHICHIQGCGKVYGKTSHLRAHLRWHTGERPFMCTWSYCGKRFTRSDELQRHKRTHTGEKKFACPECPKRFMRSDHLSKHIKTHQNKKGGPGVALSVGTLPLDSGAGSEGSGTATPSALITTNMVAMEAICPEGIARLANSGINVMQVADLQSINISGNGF

Columns and labels:
SP-1 = SP-1 (UniProt P08047); assay: competition with a labelled probe; conditions: PS at 3 linkages from 3' end, both strands; 10x molar excess, TransAM; protein in an extract; variant of decoy 895/896
NF-kappaB = assay: competition with a labelled probe; conditions: PS at 3 linkages from 3' end, both strands; 10x molar excess, TransAM; protein in an extract; variant of decoy 895/896
Oct-1 (Homo sapiens) [1] = molecular target: T1, Oct-1 (Homo sapiens) (UniProt P14859); assay: competition with a labelled probe; conditions: PS at 3 linkages from 3' end, both strands; decoy does not inhibit Oct-1 probe binding; protein in an extract; variant of decoy 895/896
T1 sequence (looked up, limits assumed): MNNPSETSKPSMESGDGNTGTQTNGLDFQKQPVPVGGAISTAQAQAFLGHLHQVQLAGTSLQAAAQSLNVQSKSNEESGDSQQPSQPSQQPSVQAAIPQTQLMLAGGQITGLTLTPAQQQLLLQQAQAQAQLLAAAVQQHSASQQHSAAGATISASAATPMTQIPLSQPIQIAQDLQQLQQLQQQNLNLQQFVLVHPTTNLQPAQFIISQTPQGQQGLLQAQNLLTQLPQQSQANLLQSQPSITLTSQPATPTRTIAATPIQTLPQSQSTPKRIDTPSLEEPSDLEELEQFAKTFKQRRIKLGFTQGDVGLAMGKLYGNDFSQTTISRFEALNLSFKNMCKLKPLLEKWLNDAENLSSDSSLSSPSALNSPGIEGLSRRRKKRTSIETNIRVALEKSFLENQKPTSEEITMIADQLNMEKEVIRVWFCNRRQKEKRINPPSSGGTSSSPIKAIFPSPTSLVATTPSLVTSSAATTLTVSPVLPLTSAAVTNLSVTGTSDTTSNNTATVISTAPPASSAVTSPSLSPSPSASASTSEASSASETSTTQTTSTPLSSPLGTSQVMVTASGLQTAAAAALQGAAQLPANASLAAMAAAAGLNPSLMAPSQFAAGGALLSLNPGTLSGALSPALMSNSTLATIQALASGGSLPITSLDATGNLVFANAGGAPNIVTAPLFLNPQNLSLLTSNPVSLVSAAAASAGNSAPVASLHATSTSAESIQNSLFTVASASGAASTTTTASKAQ

[2] = tested on: HIF-1 (HIF-1alpha/HIF-1beta (ARNT) heterodimer); assay: EMSA; conditions: protein in an extract, label: 32P 5' end
Oct-1 (Homo sapiens) [3] = molecular target: T1, Oct-1 (Homo sapiens); assay: EMSA; conditions: MiaPaCa extract; protein in an extract; label: 32P 5' end

CACCAGCGTACGTGCCTCAGG (double strand) [895/896 H3/H3]
binding result (SP-1): no binding
binding result (NF-kappaB): no binding
binding result (Oct-1 (Homo sapiens) [1]): no binding

CACCAGCGTACGTGCCTCAGG (double strand) [HIF decoy probe]
binding result ([2]; hypoxic MiaPaCa extract, supershift by HIF-1alpha and HIF-1beta antibodies): binds

CGCGAGCGTACGTGCCTCAGG (double strand) [transferrin receptor HIF site probe]
binding result [2]: binds

GCCCTACGTGCTGTCTCA (double strand) [EPO promoter HIF site probe]
binding result [2]: binds

TGTCGAATGCAAATCACTAGAA (double strand) [Oct-1 site probe]
binding result (Oct-1 (Homo sapiens) [3]): binds

Where cells or extracts were used, other partners may take part. For some of these results: No signal at the amounts used counts as a negative. For some of these results: Where a protein sequence is shown, tags need not be part of it. For some of these results: The exact form of at least one protein or probe is not confirmed.
